Assay results published in EP4640709A1.
Changes are numbered by the printed parent chain. No constants are given. Whether binding was seen depends on the method and setting. Some binding calls cover weakened binding; strength is not graded here.

Tests used:
[1] = molecular target: T1, cynomolgus monkey CX3CR1 (cynomolgus monkey); test: flow cytometry, CX3CR1-expressing Ba/F3 cells, 200 nM
T1 sequence: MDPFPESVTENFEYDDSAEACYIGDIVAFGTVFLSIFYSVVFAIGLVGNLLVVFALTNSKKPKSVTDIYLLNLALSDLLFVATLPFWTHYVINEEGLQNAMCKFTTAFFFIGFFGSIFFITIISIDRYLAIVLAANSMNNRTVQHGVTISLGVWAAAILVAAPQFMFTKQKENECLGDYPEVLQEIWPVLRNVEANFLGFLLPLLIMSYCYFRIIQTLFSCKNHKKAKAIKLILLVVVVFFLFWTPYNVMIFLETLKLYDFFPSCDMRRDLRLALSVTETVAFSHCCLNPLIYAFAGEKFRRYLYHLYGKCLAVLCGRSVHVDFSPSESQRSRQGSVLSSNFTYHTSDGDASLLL

[2] = molecular target: T1, cynomolgus monkey CX3CR1 (cynomolgus monkey); test: flow cytometry, CX3CR1-expressing Ba/F3 cells, 200 nM, grade vs positive antibody (+++ >70%, ++ 40-70%, + 10-40%, - <10%)
[3] = molecular target: T1, cynomolgus monkey CX3CR1 (cynomolgus monkey); test: flow cytometry, CX3CR1-expressing Ba/F3 cells, relative to Synagis

B1: m1F8-1 antibody (antibody, V domains shown)
VH: QVQLQQSGAELARPGASVKLSCKASGFTFTNYWMQWIKQRPGQGLEWIGAIYPGSGESRYTRKFKGKATLTADKSSSTAYMQLNSLASEDSAVYYCARWAGYSRNAAYWGQGTLVTVSA
VL: DVLMTQTPLSLPVSLGDQASISCRSSQSIVHSSGNTYLEWYLQKPGQSPKLLIYKVSNRFSGVPDRFSGSGSGTDFTLKISRVEAEDLGVYYCFQGSHIPPTFGGGTKLEIK
- binding [1]: binds
- binding [2]: binds

B2: m1F8-2 antibody (antibody, V domains shown)
VH: B1 VH
VL: B1 VL with S26R
- binding [1]: binds
- binding [2]: binds

B3: h1F8-2-2 antibody (antibody, IgG1, V domains shown)
VH: QVQLVQSGAEVKKPGSSVKVSCKASGFTFTNYWMQWIRQAPGQGLEWIGAIYPGSGESRYTRKFKGKATITADKSTSTAYMELSSLRSEDTAVYYCARWAGYSRNAAYWGQGTLVTVSS
VL: B1 VL with V2I, L3V, S14T, L15P, D17E, Q18P, S26R, K50Q, L88V, L109V
- binding [3]: binds
